Experimental data: US20120225141A1
Where a chain is given by its changes, count along the chain named. These are yes or no findings as the source states them, for the method shown. Binding seen in cells or lysates may run through a third protein. Some binding calls cover weakened binding; strength is not graded here. Tags and fused reporters may be left off the sequences shown.

T1: mature murine LOX (LOX 27H), from construct pcLOX27-V5His (murine) (UniProt P28301)
T1 sequence (looked up): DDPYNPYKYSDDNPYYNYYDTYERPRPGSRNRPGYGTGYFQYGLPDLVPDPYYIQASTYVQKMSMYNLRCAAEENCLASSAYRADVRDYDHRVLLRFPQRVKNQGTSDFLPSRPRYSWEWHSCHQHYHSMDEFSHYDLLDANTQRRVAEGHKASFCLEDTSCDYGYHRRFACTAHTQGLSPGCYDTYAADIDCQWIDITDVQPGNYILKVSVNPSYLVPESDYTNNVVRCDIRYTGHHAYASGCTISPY

T2: mature human LOX (LOX 36H), from construct pcLOX36-V5His (human) (UniProt P28300)
T2 sequence: T1 sequence (looked up) with S29G, N31Y, P49A, S80T, A188G, Q202K

B1: complete form of NRAGE (NM3-HA), from construct pNM3-HA (protein, not shown: small tags and cut ends)
chain: MAQKMDCGAGLLGFQAEASVEDSALLMQTLMEAIQISEAPPTNQATAAASPQSSQPPTANEMADIQVSAAAARPKSAFKVQNATTKGPNGVYDFSQAHNAKDVPNTQPKAAFKSQNATSKGPNAAYDFSQAATTGELAANKSEMAFKAQNATTKVGPNATYNFSQSLNANDLANSRPKTPFKAWNDTTKAPTADTQTQNVNQAKMATSQADIETDPGISEPDGATAQTSADGSQAQNLESRTIIRGKRTRKINNLNVEENSSGDQRRAPLAAGTWRSAPVPVTTQNPPGAPPNVLWQTPLAWQNPSGWQNQTARQTPPARQSPPARQTPPAWQNPVAWQNPVIWPNPVIWQNPVIWPNPIVWPGPVVWPNPLAWQNPPGWQTPPGWQTPPGWQGPPDWQGPPDWPLPPDWPLPPDWPLPTDWPLPPDWIPADWPIPPDWQNLRPSPNLRPSPNSRASQNPGAAQPRDVALLQERANKLVKYLMLKDYTKVPIKRSEMLRDIIREYTDVYPEIIERACFVLEKKFGIQLKEIDKEEHLYILISTPESLAGILGTTKDTPKLGLLLVILGVIFMNGNRASEAVLWEALRKMGLRPGVRHPLLGDLRKLLTYEFVKQKYLDYRRVPNSNPPEYEFLWGLRSYHETSKMKVLRFIAEVQKRDPRDWTAQFMEAADEALDALDAAAAEAEARAEARTRMGIGDEAVSGPWSWDDIEFELLTWDEEGDFGDPWSRIPFTFWARYHQNARSRFPQTFAGPIIGPGGTASANFAANFGAIGFFWVE
B2: NRAGE (NM7-HA), which corresponds to the IRD region, from construct pNM7-HA (protein, not shown: small tags and cut ends)
chain: WQTPLAWQNPSGWQNQTARQTPPARQSPPARQTPPAWQNPVAWQNPVIWPNPVIWQNPVIWPNPIVWPGPVVWPNPLAWQNPPGWQTPPGWQTPPGWQGPPDWQGPPDWPLPPDWPLPPDWPLPTDWPLPPDWIPADWPIPPDWQNLRP

Key:
[1] = molecular target: T1, mature murine LOX (LOX 27H), from construct pcLOX27-V5His (murine); test: co-immunoprecipitation (anti-V5 or anti-HA) from co-transfected Cos 7 cell lysates, Western blot
[2] = molecular target: T2, mature human LOX (LOX 36H), from construct pcLOX36-V5His (human); test: as above

| binding [1] | binding [2] | Binder |
| --- | --- | --- |
| binds | binds | B1 |
| binds | binds | B2 |
